For test [1], the target named is Human M2 muscarinic receptor bearing the c-Myc or FLAG epitope at the N-terminus (human) (UniProt P08172). Briefly: condition: only after purification on DEAE-Sepharose, ABT-Sepharose and hydroxyapatite; cross-linking; purified M2 receptor, BS3 2 mM, 30 min at 24°C; electrophoresis, western blot with anti-M2 antibody, densitometry; both purified. For orientation: In western blotting, separated proteins are transferred to a membrane and probed.

Chains of the proteins cited; added tags and fusions are not shown. Lines headed by an entry give the natural chain unless they say otherwise; changes in a name come on top. A line that says so, or that is headed by a name, gives the form on record, which may keep a tag or linker.
UniProt P08172: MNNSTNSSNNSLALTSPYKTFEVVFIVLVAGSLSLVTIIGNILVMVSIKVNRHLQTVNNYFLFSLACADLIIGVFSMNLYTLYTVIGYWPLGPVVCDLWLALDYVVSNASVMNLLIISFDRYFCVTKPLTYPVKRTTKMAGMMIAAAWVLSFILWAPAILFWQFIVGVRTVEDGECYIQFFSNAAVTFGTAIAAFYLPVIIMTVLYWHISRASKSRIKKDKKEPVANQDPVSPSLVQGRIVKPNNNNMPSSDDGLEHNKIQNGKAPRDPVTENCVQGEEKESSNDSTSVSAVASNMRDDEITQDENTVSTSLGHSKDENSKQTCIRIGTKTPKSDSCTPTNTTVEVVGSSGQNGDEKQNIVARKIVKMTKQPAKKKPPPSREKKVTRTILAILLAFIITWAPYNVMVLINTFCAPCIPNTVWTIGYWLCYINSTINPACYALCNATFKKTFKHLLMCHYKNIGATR
His6-M2-ECL2+ve (P08172, form named): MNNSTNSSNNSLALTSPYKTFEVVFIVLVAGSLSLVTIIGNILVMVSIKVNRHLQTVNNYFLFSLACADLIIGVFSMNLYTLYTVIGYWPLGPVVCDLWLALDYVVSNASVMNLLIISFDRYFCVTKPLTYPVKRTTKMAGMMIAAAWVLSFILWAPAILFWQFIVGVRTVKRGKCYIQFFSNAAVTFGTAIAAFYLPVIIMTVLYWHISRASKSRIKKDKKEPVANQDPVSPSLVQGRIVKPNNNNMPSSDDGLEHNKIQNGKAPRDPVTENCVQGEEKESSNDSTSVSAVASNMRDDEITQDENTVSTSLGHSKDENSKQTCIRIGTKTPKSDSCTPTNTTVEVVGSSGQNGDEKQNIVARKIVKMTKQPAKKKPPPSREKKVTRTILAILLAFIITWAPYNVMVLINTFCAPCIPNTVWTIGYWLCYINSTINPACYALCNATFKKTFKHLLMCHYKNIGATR

The target is the same in test [2]. Briefly: co-IP; extract (digitonin–cholate) of Sf9 cells co-expressing FLAG- and c-Myc-tagged receptor; agarose-conjugated anti-FLAG antibody, overnight at 4°C; blot with anti-c-Myc antibody.
The next test deals with FLAG-M2(D103A) (human) (UniProt P08172). Briefly: sequential affinity co-purification (anti-FLAG resin and Ni2+-NTA); digitonin–cholate extract of co-transfected CHO cells passed successively over immobilised anti-FLAG antibody and Ni2+-NTA; eluted with FLAG peptide (100 μg/mL) and imidazole (150 mM); purified heteromer detected by binding of [3H]NMS.

No constants are given. Whether binding was seen depends on the method and setting. For part of these data: Binding seen in cells or lysates may run through a third protein. Some binding calls cover weakened binding; strength is not graded here.

Turning to “Human M2 muscarinic receptor bearing the c-Myc or FLAG epitope at the N-terminus (from UniProt P08172 1-466)”, the binding result in test [1] is reported as “no binding”; in test [2] it was “binds”.

In the case of “His6-M2-ECL2+ve (from UniProt P08172 1-466) (receptor)”, the binding result in the test with FLAG-M2(D103A) (human) was “binds”.
